Results taken from patent US20160050930A1, “METHODS OF CONTROLLING NEONICOTINOID RESISTANT PESTS” (SYNGENTA PARTICIPATIONS AG, priority 2013, published 2016).
Some entries share one result that the patent states for a list of compounds.

How the values were obtained:
[1] = system: Q-biotype strain of Bemisia tabaci (Neonicotinoid resistant); assay: Control of neonicotinoid resistant tobacco whitefly (Bemisia tabaci), spray bioassays on cotton seedlings / cotton leaf discs; type: in vivo; conditions: for control of the Q-biotype (Neonicotinoid resistant) strain of Bemisia tabaci: 200 ppm; for resistance factor: concentration for set mortality (i.e. 80%) in Q-biotype resistant strain divided by that in susceptible Bemisia tabaci strain
[2] = system: FRC-P strain of Myzus persicae (Neonicotinoid resistant); assay: Control of neonicotinoid resistant green peach aphid (Myzus persicae), spray bioassays on pea seedlings / Chinese cabbage discs; type: in vivo; conditions: for resistance factor (RF80): concentration for set mortality (i.e. 80%) in FRC-P resistant strain divided by that in susceptible Myzus persicae strain

## C#CC(C)N1[C@@H]2C=C[C@H]1C[C@](C#N)(c1cncc(Br)c1)C2 (stereo partly drawn) [Compound 5.017, (1S,5R)-3-(5-bromo-3-pyridyl)-8-(1-methylprop-2-ynyl)-8-azabicyclo[3.2.1]oct-6-ene-3-carbonitrile]
[1]
  control of the Q-biotype (Neonicotinoid resistant) strain of Bemisia tabaci: at least 80%
  resistance factor: ≤ 20
[2]; 200 ppm, FRC-P neonicotinoid resistant strain
  control of the FRC-P (Neonicotinoid resistant) strain of Myzus persicae: at least 80%
[2]
  resistance factor (RF80): ≤ 20

## C=C(C)CN1[C@@H]2C=C[C@H]1C[C@](C#N)(c1cncc(Br)c1)C2 [Compound 5.052, (1S,5R)-3-(5-bromo-3-pyridyl)-8-(2-methylallyl)-8-azabicyclo[3.2.1]oct-6-ene-3-carbonitrile]
[1]
  control of the Q-biotype (Neonicotinoid resistant) strain of Bemisia tabaci: at least 80%
  resistance factor: ≤ 20

## O=[N+]([O-])NC1=NCCN1Cc1ccc(Cl)nc1 [Imidacloprid, reference compound]
[1]
  resistance factor: > 64
[2]
  resistance factor (RF80): > 64
